PubChem BioAssay AID504808, Drosophila RNAi Screening Center | 2011

Assay: 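Genes whose loss lifts activity of an E2F-responsive reporter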 (primary screen)
System: Drosophila S2 cells
Reagents: long dsRNA against Drosophila genes
Measured: 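Firefly luciferase driven by E2F sites, normalised to Renilla luciferase on the same minimal promoter, measured by plate reader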
Direction: E2F firefly: higher = more E2F reporter activity; Renilla normaliser: higher = more normaliser reporter signal
Call rule: 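Called active if the normalised E2F reporter went up by over 50%; the cutoff is arbitrary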
The screen tested about 21,000 reagents; below is a random part of those with a known target gene and a result. Of all reagents, 18 (0.084%) are marked active. 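Raw counts without plate normalisation, one of two replicates; the ratio scores behind the calls were not deposited.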 Not given: the amount of reagent, the time to read-out.

| predicted target | PubChem SID | E2F firefly, rep 1 | Renilla normaliser, rep 1 | call |
| --- | --- | --- | --- | --- |
| nkt (noktochor) | SID104189936 | 1.08e5 | 6211 | inactive |
| hbs (hibris) | SID104187419 | 98321 | 4893 | inactive |
| Ir60b (Ionotropic receptor 60b) | SID104184009 | 1.10e5 | 4875 | inactive |
| CG14100 | SID104189893 | 1.35e5 | 6737 | inactive |
| Sf3a1 (Splicing factor 3a subunit 1) | SID104194958 | 49918 | 3438 | inactive |
| CG7213 | SID104190579 | 96711 | 3555 | inactive |
| eIF4E4 (eukaryotic translation initiation factor 4E4) | SID104189493 | 1.07e5 | 3692 | inactive |
| CG13138 | SID104182027 | 1.47e5 | 5029 | inactive |
| Timp (Tissue inhibitor of metalloproteases) | SID104196874 | 65898 | 3220 | inactive |
| Dic3 | SID104185850 | 1.35e5 | 4456 | inactive |
| DIP-gamma (Dpr-interacting protein gamma) | SID104194665 | 1983 | 1048 | inactive |
| CG15093 | SID104186314 | 74977 | 3967 | inactive |
| CG4645 | SID104199699 | 8295 | 648 | inactive |
| Lime (Linking immunity and metabolism) | SID104186544 | 1.09e5 | 4430 | inactive |
| Lsm10 | SID104186042 | 1.45e5 | 5148 | inactive |
| CG9168 | SID104188425 | 1.05e5 | 4464 | inactive |
| neb (nebbish) | SID104183369 | 80867 | 3405 | inactive |
| run (runt) | SID104200376 | 1.56e5 | 5893 | inactive |
| CG6696 | SID104199796 | 1.29e5 | 5297 | inactive |

Laid out differently: results already given
CG7213 [SID104190579] | E2F firefly, rep 1 = 96711; Renilla normaliser, rep 1 = 3555; call = inactive
eIF4E4 (eukaryotic translation initiation factor 4E4) [SID104189493] | E2F firefly, rep 1 = 1.07e5; Renilla normaliser, rep 1 = 3692; call = inactive
CG13138 [SID104182027] | E2F firefly, rep 1 = 1.47e5; Renilla normaliser, rep 1 = 5029; call = inactive

More reagents follow.
| predicted target | PubChem SID | E2F firefly, rep 1 | Renilla normaliser, rep 1 | call |
| --- | --- | --- | --- | --- |
| CG15343 | SID104197820 | 1.12e5 | 5433 | inactive |
| Kyat (Kynurenine aminotransferase) | SID104195939 | 1.26e5 | 6283 | inactive |
| LysX (Lysozyme X) | SID104188470 | 90278 | 3852 | inactive |
| CG3942 | SID104195317 | 1.72e5 | 6888 | inactive |
| CG8526 | SID104196230 | 1.62e5 | 7129 | inactive |
| CG43737 | SID104199401 | 1.48e5 | 5985 | inactive |
| CG17027 | SID104190030 | 80276 | 3928 | inactive |
| CG17841 | SID104197529 | 7943 | 756 | inactive |
| Alp7 (Alkaline phosphatase 7) | SID104184147 | 1.01e5 | 3637 | inactive |
| CDase (Ceramidase) | SID104194724 | 1728 | 856 | inactive |
| TkR86C (Tachykinin-like receptor at 86C) | SID104196672 | 1.38e5 | 6771 | inactive |
| CG8490 | SID104186986 | 151 | 36 | inactive |
| kat-60L1 (katanin p60-like 1) | SID104191976 | 68734 | 3601 | inactive |
| Rpn8 (Regulatory particle non-ATPase 8) | SID104184416 | 73056 | 5422 | inactive |
| Hacd2 (3-hydroxyacyl-CoA dehydratase 2) | SID104182973 | 1.02e5 | 4566 | inactive |
